Measured values published in the supplement of paper PMC10849652.
The other results are listed elsewhere or left out.

By UniProt entry, the sequences of proteins in these tests, tags left out. Where a name states a change or a piece, a line headed by the entry shows the natural chain unless it says otherwise.
UniProt Q9NUL3: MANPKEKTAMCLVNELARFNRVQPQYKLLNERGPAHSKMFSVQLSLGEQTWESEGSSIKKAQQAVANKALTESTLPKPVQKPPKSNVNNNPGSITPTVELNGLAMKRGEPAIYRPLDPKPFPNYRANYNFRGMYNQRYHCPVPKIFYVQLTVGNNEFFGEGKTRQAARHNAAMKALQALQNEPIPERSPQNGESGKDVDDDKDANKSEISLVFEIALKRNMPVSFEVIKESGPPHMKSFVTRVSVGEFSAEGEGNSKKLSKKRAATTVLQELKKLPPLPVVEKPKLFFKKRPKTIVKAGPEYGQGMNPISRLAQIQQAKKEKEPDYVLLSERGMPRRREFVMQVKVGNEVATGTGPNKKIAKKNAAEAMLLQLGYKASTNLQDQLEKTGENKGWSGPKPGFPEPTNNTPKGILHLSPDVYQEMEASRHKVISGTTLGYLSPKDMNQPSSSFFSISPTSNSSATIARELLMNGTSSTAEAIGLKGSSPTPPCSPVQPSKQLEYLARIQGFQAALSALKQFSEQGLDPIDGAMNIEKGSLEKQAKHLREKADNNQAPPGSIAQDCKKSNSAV
UniProt Q8TCT8: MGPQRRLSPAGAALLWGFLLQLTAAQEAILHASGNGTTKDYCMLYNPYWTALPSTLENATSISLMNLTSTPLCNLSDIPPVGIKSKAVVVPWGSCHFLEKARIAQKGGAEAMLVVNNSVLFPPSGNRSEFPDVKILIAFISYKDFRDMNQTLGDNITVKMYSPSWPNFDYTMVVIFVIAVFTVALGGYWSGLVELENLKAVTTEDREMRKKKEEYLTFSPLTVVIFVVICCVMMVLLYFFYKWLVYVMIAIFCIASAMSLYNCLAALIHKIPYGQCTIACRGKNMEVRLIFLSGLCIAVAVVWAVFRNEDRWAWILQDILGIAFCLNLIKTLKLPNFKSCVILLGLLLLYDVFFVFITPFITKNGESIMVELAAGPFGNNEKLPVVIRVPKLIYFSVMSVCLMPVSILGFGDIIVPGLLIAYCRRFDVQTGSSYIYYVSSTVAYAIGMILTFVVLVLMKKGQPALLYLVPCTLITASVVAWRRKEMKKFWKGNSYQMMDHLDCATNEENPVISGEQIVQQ
UniProt P19623: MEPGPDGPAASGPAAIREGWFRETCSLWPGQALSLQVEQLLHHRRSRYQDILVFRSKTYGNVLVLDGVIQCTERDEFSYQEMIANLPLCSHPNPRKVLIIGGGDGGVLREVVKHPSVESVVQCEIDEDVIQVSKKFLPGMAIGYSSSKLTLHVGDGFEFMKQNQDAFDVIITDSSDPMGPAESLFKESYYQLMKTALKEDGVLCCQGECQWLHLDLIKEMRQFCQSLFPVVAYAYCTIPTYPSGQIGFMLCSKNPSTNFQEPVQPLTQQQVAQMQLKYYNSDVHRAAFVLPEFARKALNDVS
UniProt O95793: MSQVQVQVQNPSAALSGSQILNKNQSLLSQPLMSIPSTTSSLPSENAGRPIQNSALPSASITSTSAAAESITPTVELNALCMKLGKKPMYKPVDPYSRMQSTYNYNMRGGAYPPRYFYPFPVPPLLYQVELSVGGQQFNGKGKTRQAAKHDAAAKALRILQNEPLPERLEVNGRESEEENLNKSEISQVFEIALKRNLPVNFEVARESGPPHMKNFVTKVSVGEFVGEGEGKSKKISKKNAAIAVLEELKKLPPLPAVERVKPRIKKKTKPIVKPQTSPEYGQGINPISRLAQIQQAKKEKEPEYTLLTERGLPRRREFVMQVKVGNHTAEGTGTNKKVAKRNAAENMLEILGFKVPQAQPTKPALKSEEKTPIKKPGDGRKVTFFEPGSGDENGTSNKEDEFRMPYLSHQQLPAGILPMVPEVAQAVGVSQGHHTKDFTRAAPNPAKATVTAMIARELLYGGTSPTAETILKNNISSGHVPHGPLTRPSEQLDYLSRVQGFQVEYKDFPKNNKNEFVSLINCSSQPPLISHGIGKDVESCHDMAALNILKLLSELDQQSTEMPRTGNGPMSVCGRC
UniProt Q8N3U4: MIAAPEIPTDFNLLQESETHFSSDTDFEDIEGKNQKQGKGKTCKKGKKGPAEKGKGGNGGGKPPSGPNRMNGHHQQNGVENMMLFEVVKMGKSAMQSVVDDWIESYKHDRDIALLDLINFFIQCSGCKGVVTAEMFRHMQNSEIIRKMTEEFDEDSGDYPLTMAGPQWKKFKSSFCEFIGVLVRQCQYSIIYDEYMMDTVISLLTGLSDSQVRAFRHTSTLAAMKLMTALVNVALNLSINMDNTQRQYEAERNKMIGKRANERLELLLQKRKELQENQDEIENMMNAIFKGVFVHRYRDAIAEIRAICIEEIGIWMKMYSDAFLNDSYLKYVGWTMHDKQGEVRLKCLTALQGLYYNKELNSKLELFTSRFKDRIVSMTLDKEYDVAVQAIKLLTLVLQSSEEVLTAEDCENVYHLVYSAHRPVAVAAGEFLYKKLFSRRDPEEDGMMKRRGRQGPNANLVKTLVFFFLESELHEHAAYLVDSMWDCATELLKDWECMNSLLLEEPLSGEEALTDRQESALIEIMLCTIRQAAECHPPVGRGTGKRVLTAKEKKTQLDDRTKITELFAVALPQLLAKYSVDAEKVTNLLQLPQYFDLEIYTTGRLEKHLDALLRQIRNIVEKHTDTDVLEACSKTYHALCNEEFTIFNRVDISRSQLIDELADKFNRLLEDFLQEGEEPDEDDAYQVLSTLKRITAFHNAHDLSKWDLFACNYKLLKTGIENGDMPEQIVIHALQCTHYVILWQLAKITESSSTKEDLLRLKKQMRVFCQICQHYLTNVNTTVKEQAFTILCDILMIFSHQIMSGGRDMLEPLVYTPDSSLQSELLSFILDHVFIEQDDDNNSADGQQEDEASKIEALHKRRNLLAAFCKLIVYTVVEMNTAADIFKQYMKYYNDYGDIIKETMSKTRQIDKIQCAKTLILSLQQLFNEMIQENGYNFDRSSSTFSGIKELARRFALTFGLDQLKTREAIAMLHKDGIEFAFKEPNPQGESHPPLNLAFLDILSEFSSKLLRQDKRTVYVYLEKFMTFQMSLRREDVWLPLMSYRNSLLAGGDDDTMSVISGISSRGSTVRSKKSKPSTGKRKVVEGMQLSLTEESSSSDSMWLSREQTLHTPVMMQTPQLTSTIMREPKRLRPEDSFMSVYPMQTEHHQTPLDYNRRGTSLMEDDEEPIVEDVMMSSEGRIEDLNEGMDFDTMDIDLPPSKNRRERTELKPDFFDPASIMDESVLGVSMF
UniProt P61011: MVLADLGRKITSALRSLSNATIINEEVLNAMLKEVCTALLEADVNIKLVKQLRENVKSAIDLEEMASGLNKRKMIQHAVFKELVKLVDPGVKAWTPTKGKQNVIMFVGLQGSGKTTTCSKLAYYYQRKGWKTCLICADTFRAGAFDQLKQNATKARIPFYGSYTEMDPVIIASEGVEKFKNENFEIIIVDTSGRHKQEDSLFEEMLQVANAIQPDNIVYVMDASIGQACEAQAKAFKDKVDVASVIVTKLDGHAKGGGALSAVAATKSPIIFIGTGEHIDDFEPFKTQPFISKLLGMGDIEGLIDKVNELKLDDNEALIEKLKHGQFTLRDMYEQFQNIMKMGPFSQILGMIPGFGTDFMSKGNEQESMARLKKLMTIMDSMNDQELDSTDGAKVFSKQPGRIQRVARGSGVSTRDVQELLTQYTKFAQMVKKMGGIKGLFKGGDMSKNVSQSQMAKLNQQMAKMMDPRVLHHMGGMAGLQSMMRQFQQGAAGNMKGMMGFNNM
UniProt Q14849, whole entry, looked up: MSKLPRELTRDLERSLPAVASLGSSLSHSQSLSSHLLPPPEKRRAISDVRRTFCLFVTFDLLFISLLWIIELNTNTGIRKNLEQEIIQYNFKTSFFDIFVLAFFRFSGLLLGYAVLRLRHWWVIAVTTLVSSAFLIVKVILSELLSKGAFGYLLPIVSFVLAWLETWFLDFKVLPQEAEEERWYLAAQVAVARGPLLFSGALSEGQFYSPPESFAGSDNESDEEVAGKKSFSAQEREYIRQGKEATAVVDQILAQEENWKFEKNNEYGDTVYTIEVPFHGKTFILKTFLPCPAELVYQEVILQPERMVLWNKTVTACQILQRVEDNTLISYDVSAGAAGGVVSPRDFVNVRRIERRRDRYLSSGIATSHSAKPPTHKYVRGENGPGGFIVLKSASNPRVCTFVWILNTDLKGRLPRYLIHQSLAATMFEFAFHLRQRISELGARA
UniProt P43307: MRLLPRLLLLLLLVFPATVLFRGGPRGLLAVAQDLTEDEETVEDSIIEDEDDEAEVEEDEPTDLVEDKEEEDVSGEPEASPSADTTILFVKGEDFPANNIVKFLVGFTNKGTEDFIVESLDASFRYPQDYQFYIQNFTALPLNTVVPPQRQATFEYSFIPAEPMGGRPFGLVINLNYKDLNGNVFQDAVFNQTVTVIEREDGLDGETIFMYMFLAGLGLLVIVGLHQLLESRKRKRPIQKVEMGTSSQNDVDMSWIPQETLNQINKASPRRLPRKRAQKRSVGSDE
UniProt Q6ZUB1: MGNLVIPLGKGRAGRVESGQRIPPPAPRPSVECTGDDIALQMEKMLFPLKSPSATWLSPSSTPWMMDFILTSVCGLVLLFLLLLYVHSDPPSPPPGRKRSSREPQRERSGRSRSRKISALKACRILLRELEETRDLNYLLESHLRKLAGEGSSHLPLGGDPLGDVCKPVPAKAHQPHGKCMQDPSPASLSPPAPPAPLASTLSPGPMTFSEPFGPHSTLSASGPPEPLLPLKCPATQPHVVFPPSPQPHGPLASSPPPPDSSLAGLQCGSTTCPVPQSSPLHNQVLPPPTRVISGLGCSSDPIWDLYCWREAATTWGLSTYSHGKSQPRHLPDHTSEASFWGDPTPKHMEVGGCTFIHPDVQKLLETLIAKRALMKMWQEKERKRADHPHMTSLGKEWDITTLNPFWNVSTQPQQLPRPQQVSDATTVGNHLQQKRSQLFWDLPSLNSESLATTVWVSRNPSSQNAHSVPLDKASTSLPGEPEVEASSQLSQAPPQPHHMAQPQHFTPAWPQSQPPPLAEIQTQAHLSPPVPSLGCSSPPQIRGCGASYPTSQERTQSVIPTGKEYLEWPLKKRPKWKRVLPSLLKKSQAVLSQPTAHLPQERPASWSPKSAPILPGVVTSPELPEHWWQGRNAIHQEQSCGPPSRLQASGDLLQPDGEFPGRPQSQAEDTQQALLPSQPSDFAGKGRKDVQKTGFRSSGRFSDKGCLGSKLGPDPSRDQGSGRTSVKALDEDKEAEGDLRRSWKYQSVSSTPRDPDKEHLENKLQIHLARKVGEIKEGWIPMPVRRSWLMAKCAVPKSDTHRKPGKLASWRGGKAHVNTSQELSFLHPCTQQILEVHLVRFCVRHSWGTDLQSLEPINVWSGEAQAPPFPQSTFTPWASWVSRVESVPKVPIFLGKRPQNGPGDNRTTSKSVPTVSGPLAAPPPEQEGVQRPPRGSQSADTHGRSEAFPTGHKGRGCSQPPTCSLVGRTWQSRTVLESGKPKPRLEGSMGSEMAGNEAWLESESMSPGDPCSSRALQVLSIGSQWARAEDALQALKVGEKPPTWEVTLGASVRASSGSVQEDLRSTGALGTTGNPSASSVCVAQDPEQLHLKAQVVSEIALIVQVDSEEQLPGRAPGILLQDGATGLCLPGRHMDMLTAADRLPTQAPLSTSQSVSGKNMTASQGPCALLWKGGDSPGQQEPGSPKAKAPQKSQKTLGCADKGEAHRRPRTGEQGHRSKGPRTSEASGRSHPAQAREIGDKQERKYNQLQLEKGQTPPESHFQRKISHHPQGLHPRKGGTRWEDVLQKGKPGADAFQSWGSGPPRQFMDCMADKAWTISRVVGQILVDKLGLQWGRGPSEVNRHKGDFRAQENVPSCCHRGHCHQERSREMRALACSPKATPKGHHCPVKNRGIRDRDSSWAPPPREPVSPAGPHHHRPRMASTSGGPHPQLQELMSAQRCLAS
UniProt P10124: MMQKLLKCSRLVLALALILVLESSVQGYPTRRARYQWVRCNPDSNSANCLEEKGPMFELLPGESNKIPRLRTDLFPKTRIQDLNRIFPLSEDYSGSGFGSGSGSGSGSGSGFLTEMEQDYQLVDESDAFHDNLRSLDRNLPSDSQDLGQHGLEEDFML
UniProt Q8NEF9: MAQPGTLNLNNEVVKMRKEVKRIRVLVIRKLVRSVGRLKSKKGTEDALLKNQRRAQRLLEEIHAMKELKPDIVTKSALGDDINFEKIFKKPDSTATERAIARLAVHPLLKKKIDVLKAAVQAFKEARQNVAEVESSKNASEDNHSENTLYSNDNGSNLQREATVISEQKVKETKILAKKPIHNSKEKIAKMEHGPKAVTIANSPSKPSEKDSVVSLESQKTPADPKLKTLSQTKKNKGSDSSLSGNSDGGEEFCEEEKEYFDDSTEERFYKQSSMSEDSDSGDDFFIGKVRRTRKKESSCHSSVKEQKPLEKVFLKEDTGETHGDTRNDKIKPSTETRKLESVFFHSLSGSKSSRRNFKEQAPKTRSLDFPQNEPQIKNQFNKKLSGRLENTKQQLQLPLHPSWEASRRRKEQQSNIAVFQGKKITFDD

Experiments:
Assay in all cases: log2 fold change, soluble protein after heating vs DMSO (PISA); higher = thermal stabilisation; K562 cells, 10 uM, 30 min; active = over 0.2 and 3.5 SD of the protein, either way, in both replicates (recomputed)
[1] = compound: NC(=O)Nc1cc(-c2cccc(F)c2)sc1C(=O)N[C@H]1CCCNC1
In short: (§1)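 K562 cells at 2×10^6 cells/mL were given 10 μM compound for 30 min. Aliquots then went through 3 min of heating across 48°C-58°C, were pooled, and were extracted in PBS with 0.5% NP-40 at 4°C, and the supernatant after 21,000xg for 90 min was quantified by TMTpro 16plex LC-MS/MS with channel sums equalised. Thermal stability relative to control samples, from duplicates, is given as log2 fold change.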

[2] = compound: NC(=O)c1cnc(N[C@@H]2CCCC[C@@H]2N)nc1Nc1cccc(-n2nccn2)c1
In short: as §1

[3] = compound: NC1(c2ccc(-c3nc4ccn5c(=O)[nH]nc5c4cc3-c3ccccc3)cc2)CCC1
In short: as §1

[4] = compound: NCC(=O)Nc1ccc(-n2nc(C(F)(F)F)cc2-c2ccc3c(ccc4ccccc43)c2)cc1
In short: as §1

entinostat = compound: Nc1ccccc1NC(=O)c1ccc(CNC(=O)OCc2cccnc2)cc1 [entinostat]
In short: as §1

vorinostat = compound: O=C(CCCCCCC(=O)Nc1ccccc1)NO [vorinostat]
In short: as §1

citarinostat = compound: O=C(CCCCCCNC(=O)c1cnc(N(c2ccccc2)c2ccccc2Cl)nc1)NO [citarinostat]
In short: as §1

silmitasertib = compound: O=C(O)c1ccc2c(c1)nc(Nc1cccc(Cl)c1)c1ccncc12 [silmitasertib]
In short: as §1

[5] = compound: O=C1NC(=O)C(c2cnc3ccccn23)=C1c1cn2c3c(cc(F)cc13)CN(C(=O)N1CCCCC1)CC2
In short: as §1

[6] = compound: c1cc(OCCN2CCCCC2)cc(-c2n[nH]c3ccc(-c4nnc[nH]4)cc23)c1
In short: as §1

entospletinib = compound: c1cn2cc(-c3ccc4cn[nH]c4c3)nc(Nc3ccc(N4CCOCC4)cc3)c2n1 [entospletinib]
In short: as §1

Measured: log2 fold change

SPCS1, A0A5F9YFS9
inactive: [1] 0.044 | [2] -0.097 | [3] -0.05 | [4] -0.06 | entinostat -0.013 | vorinostat 0 | citarinostat -0.262 | silmitasertib -0.021 | [5] -0.156 | [6] 0.014 | entospletinib 0.037

SPECC1L (UniProt Q69YQ0)
inactive: [1] -0.024 | [2] 0.03 | [3] -0.056 | [4] 0.006 | entinostat -0.04 | vorinostat -0.076 | citarinostat 0.042 | silmitasertib 0.018 | [5] -0.081 | [6] -0.029 | entospletinib -0.026

STAU2 (UniProt Q9NUL3)
inactive: [1] 0.007 | [2] -0.052 | [3] 0.385 | [4] 0.035 | entinostat 0.042 | vorinostat 0.008 | citarinostat -0.012 | silmitasertib 0.104 | [5] 0.029 | [6] -0.157 | entospletinib 0.08

ST8SIA6 (UniProt P61647)
inactive: [1] -0.146 | [2] -0.155 | [4] -0.178 | entinostat 0.051 | vorinostat 0.17

ST6GALNAC1 (UniProt Q9NSC7)
inactive: [1] 0.042 | [2] 0.15 | [3] 0.005 | [4] 0.047 | entinostat 0.02 | citarinostat 0.041 | silmitasertib 0.011 | [5] 0.079 | [6] -0.011 | entospletinib -0.073

STK11 (UniProt Q15831)
inactive: [1] -0.035 | [2] 0.119 | [3] -0.022 | [4] 0.05 | entinostat -0.001 | vorinostat -0.057 | citarinostat 0.054 | silmitasertib -0.022 | [5] -0.056 | [6] -0.047 | entospletinib -0.04

ST3GAL4 isoform 4 (UniProt Q11206)
inactive: [1] -0.045 | [2] -0.064 | entinostat -0.098 | [5] 0.129

SSU72 (UniProt Q9NP77)
inactive: [1] 0.003 | [2] -0.05 | [3] 0.182 | [4] -0.032 | entinostat 0.061 | vorinostat 0.094 | silmitasertib -0.389 | [5] -0.035

SPPL2A (UniProt Q8TCT8)
inactive: [1] 0.032 | [2] -0.027 | [3] -0.043 | [4] 0.021 | entinostat 0.012 | vorinostat 0.049 | citarinostat 0.03 | silmitasertib 0 | [5] 0.115 | [6] -0.009 | entospletinib -0.04

SRR (UniProt Q9GZT4)
inactive: [1] 0.044 | [2] 0.025 | [3] -0.069 | [4] -0.006 | entinostat 0 | vorinostat -0.077 | citarinostat -0.023 | silmitasertib -0.013 | [5] 0.04 | [6] 0.035 | entospletinib 0.079

SRM (UniProt P19623)
inactive: [1] -0.03 | [2] -0.059 | [3] -0.146 | [4] -0.039 | entinostat -0.006 | vorinostat 0.004 | citarinostat 0.012 | silmitasertib -0.034 | [5] -0.027 | [6] -0.049 | entospletinib 0.086

SRPK1 (UniProt Q96SB4)
inactive: [1] 0.256 | [2] 0.068 | [3] 0.199 | [4] 0.127 | entinostat -0.012 | vorinostat -0.026 | citarinostat -0.119 | silmitasertib 0.131 | [5] 0.258 | [6] -0.266 | entospletinib 0.052

SRRM1 (UniProt Q8IYB3)
inactive: [1] -0.024 | [2] 0.045 | [3] 0.035 | [4] -0.012 | entinostat -0.054 | vorinostat -0.023 | citarinostat -0.091 | silmitasertib -0.023 | [5] 0.035 | [6] -0.235 | entospletinib 0.092

STAU1 (UniProt O95793)
inactive: [1] 0.068 | [2] 0.094 | [3] 0.325 | [4] 0.105 | entinostat -0.063 | vorinostat 0.008 | citarinostat -0.133 | silmitasertib 0.182 | [5] 0.211 | [6] -0.349 | entospletinib 0.048

STAG2 (UniProt Q8N3U4)
inactive: [1] -0.024 | [2] -0.003 | [3] -0.039 | [4] -0.03 | entinostat 0.013 | vorinostat 0.076 | citarinostat 0.081 | silmitasertib -0.024 | [5] -0.065 | [6] -0.115 | entospletinib -0.011

SRP54 (UniProt P61011)
inactive: [1] -0.017 | [2] -0.051 | [3] -0.106 | [4] -0.075 | entinostat 0.051 | vorinostat 0.026 | citarinostat 0.054 | silmitasertib 0 | [5] -0.039 | [6] -0.048 | entospletinib 0

STARD3 (UniProt Q14849)
inactive: [1] 0.014 | [2] 0.079 | [3] -0.236 | [4] -0.073 | entinostat 0.004 | vorinostat -0.021 | silmitasertib 0.053 | [5] -0.003

SSR1 (UniProt P43307)
inactive: [1] 0.002 | [2] -0.037 | [3] -0.028 | [4] -0.047 | entinostat -0.013 | vorinostat -0.062 | citarinostat 0.034 | silmitasertib -0.005 | [5] -0.051 | [6] -0.016 | entospletinib 0.019

SPTA1 (UniProt P02549)
inactive: [1] 0.023 | [2] -0.096 | [3] 0.016 | [4] 0.017 | entinostat 0.062 | vorinostat 0.061 | citarinostat 0.038 | silmitasertib 0.215 | [5] 0.164 | [6] -0.067 | entospletinib 0.185

SPATA31E1 (UniProt Q6ZUB1)
inactive: [1] -0.389 | [2] -0.545 | [3] -0.093 | [4] -0.186 | entinostat -0.121 | vorinostat -0.086 | citarinostat -0.13 | silmitasertib 0.223 | [6] -0.179 | entospletinib 0.118

STAG1 (UniProt Q8WVM7)
inactive: [1] -0.017 | [2] -0.071 | [3] -0.075 | [4] -0.022 | entinostat -0.007 | vorinostat 0.118 | citarinostat 0.142 | silmitasertib -0.056 | [5] -0.062 | [6] -0.1 | entospletinib -0.04

SPTAN1 isoform 2 (UniProt Q13813)
inactive: [1] -0.023 | [2] -0.001 | [3] 0.012 | [4] -0.016 | entinostat -0.044 | vorinostat 0.004 | citarinostat -0.017 | silmitasertib 0.103 | [5] 0.017 | [6] 0.002 | entospletinib 0.049

SQLE (UniProt Q14534)
inactive: [1] -0.101 | [2] -0.081 | [3] 0.104 | [4] -0.071 | entinostat -0.004 | vorinostat -0.011 | citarinostat 0.03 | silmitasertib 0.04 | [5] -0.08 | [6] -0.016 | entospletinib -0.01

SPTB isoform 2 (UniProt P11277)
inactive: [1] -0.505 | [2] -0.115 | [3] 0.086 | [4] 0.019 | entinostat -0.343 | vorinostat 0.132 | citarinostat 0.042 | silmitasertib 0.284 | [5] -0.046 | [6] -0.098 | entospletinib 0.23

Pulled one by one from the list above (2):
STAG1 (UniProt Q8WVM7)
inactive: [1] -0.017 | [2] -0.071 | [3] -0.075 | [4] -0.022 | entinostat -0.007 | vorinostat 0.118 | citarinostat 0.142 | silmitasertib -0.056 | [5] -0.062 | [6] -0.1 | entospletinib -0.04

ST8SIA6 (UniProt P61647)
inactive: [1] -0.146 | [2] -0.155 | [4] -0.178 | entinostat 0.051 | vorinostat 0.17

Continuation.

SRA1 (UniProt Q9HD15)
inactive: [1] -0.033 | [2] -0.035 | [3] -0.034 | [4] -0.026 | entinostat -0.003 | vorinostat 0.002 | citarinostat 0.086 | silmitasertib -0.022 | [5] -0.107 | [6] -0.063 | entospletinib 0.029

SRPK2 isoform 2 (UniProt P78362)
inactive: [1] 0.107 | [2] 0.156 | [3] 0.205 | [4] 0.143 | entinostat -0.049 | vorinostat 0.025 | citarinostat -0.221 | silmitasertib 0.134 | [5] 0.207 | [6] -0.107 | entospletinib 0.078

SSBP3 (UniProt Q9BWW4)
inactive: [1] 0.022 | [2] 0.109 | [3] 0.02 | [4] -0.002 | entinostat 0.052 | vorinostat -0.168 | citarinostat 0 | silmitasertib 0.015 | [5] -0.049 | [6] -0.031 | entospletinib 0.045

STK24 (UniProt Q9Y6E0)
inactive: [1] 0.106 | [2] 0.062 | [3] -0.105 | [4] 0.019 | entinostat -0.015 | vorinostat 0.027 | citarinostat 0.058 | silmitasertib -0.007 | [5] -0.054 | [6] -0.005 | entospletinib -0.032

SRGN (UniProt P10124)
inactive: [1] -0.097 | [2] 0.133 | [3] 0.172 | [4] 0.284 | entinostat -0.026 | vorinostat 0.019 | citarinostat -0.035 | silmitasertib -0.009 | [5] 0.085 | [6] -0.192 | entospletinib 0.087

SRFBP1 (UniProt Q8NEF9)
inactive: [1] 0.038 | [2] 0.198 | [3] 0.211 | entinostat -0.071 | vorinostat 0.009 | citarinostat 0 | silmitasertib 0.054 | [5] 0.122 | [6] 0.116

SPP2 (UniProt Q13103)
inactive: [1] 0.005 | [2] 0.247 | [4] 0.005 | entinostat -0.096 | [5] 0.115

SPC25 (UniProt Q9HBM1)
inactive: [1] -0.034 | [2] -0.008 | [3] -0.086 | [4] -0.073 | entinostat 0.003 | vorinostat 0.022 | citarinostat 0.119 | silmitasertib 0.059 | [5] -0.045 | [6] 0.017 | entospletinib -0.032

SREK1IP1 (UniProt Q8N9Q2)
inactive: [1] -0.01 | [2] 0.076 | [3] -0.022 | [4] 0.061 | entinostat -0.027 | vorinostat 0.015 | citarinostat -0.139 | silmitasertib 0.073 | [5] 0.081 | [6] -0.242 | entospletinib -0.035
